# According to PubChem BioAssay AID1688 (National Center for Advancing Translational Sciences (NCATS), 2009):
# About 2,400 (1.1%) of roughly 220,000 compounds were called active. This list was built around the results that the source calls inconclusive (neither active nor inactive); the mix of calls is not that of the screen. Calls come from the whole dose curve; as a rule, active = well fitted inhibition curve with a large enough effect; inconclusive = small, poorly fitted or top-dose-only effect, or effect the other way; inactive = no such curve, though single readings can be large or run the other way. Where the call is inconclusive, the potency comes from a doubtful curve fit.
# Experiment: qHTS Multiplex Assay to Identify Dual Action Probes in a Cell Model of Huntington: Aggregate Formation (GFP); note: nearly all actives have a fitted effect of over 60% in size
# Conditions: PC12 HttQ103-GFP aggregates, Acumen cytometry, 40 h; activity change, negative = inhibition: at 46.1 µM (top of the series) unless noted
# Method in brief: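 Multiplexed with ATP-based cell death, this channel scores GFP aggregates in PC12 cells expressing inducible HTTex1-Q103-GFP. Induction used 100 nM tebufenozide; compounds were tested in concentration series.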
# % is set by controls: 0 for no effect and ±100 for the full control effect; potency is the fitted concentration of half-maximal effect.
Compound,Potency,"activity change, negative = inhibition"
O=c1ccc2ccc(Oc3ccc([N+](=O)[O-])cc3[N+](=O)[O-])cc2o1,"inconclusive: 25.1 µM [inhibitor, single point]",–
O=[N+]([O-])c1nn(-c2ccc3c(c2)OCCO3)n(O)c1=NCCCO,"inconclusive: 25.1 µM [inhibitor, single point]",–
CC(=O)c1ccc(-n2c(SCC(=O)c3c[nH]c4ccccc34)nc3ccccc3c2=O)cc1,"inconclusive: 3.55 µM [activator, partial curve]",–
COc1ccc(-c2ccc(C(c3c(C)[nH][nH]c3=O)c3c(C)[nH][nH]c3=O)o2)c([N+](=O)[O-])c1,inactive,–
COCCNC(=O)c1onc(CSc2ccc(C(C)C)cc2)c1C(=O)O,inactive,–
O=C(N/N=C/c1ccccn1)c1ccc(Br)o1,"inconclusive: 11.2 µM [inhibitor, single point]",–
C=CCc1cc(OC)ccc1OCC(O)CN1CCN(c2ccc(OC)cc2)CC1 (stereo unspecified),"inconclusive: 1.26 µM [activator, single point]",–
O=C(Cn1c(-c2cncs2)nc2ccccc21)NC1CCCC1,"inconclusive: 0.562 µM [activator, full curve, poor fit]",–
O=C(Nc1ccc(O)c(C(=O)O)c1)Oc1ccccc1,–,inactive: -11.4% [at 9.22 µM]
COC(=O)CN1C(=S)N(c2ccc(Cl)cc2)C(=O)C1CC(=O)Nc1ccc(F)cc1 (stereo unspecified),inactive,–
COc1ccc(CCC(C)NCC2CCCCC2)cc1 (stereo unspecified),"inconclusive: 5.62 µM [inhibitor, single point]",–
CCn1c(SCC(=O)NC(=O)NCc2ccco2)nc2sc(C)c(C)c2c1=O,"inconclusive: 20 µM [inhibitor, single point]",–
Cc1cccc2sc(NC(=O)c3ccc(NS(=O)(=O)c4cccs4)cc3)nc12,inactive,–
COc1ccc(-c2nc3ccccc3c(C(=O)Nc3ccc(S(=O)(=O)Nc4cc(C)on4)cc3)c2C)cc1,inactive,–
CCCc1nnc(NC(=O)CCC(=O)N2CCN(CCOc3ccc(C)cc3)CC2)s1,"inconclusive: 12.6 µM [inhibitor, partial curve]",–
O=C(Nc1cccc(S(=O)(=O)N2CCCCCC2)c1)c1ccc2c(c1)OCO2,"inconclusive: 35.5 µM [inhibitor, single point]",–
C/C(=N\N1CCN(Cc2ccccc2Cl)CC1)c1ccc([N+](=O)[O-])cc1,"inconclusive: 2.82 µM [activator, partial curve]",–
Cc1cc2nc(CCN(Cc3cccnc3)C(=S)Nc3ccccc3)[nH]c2cc1C,inactive,–
CCC(c1nnnn1C1CCCC1)N(Cc1cccs1)Cc1cc2cc(C)ccc2[nH]c1=O (stereo unspecified),inactive,–
C/C(=N\NC(=O)COc1ccc(C(C)(C)C)cc1)c1ccc2c(c1)OCCO2,"inconclusive: 5.62 µM [activator, single point]",–
Cc1cccc(NC(=O)CN2NS(=O)(=O)c3ccccc3C2=O)c1,inactive,–
CN1CCN(C2=C(Cl)C(=O)N(c3cccc(Cl)c3)C2=O)CC1,"inconclusive: 35.5 µM [inhibitor, single point]",–
CC(C)(C)n1nnnc1C(c1cccnc1)N(Cc1ccccc1)Cc1cccs1 (stereo unspecified),"inconclusive: 15.8 µM [inhibitor, single point]",–
O=C(NCCN1CCOCC1)c1ccc(Cl)c(S(=O)(=O)N2CCCCCC2)c1,"inconclusive: 20 µM [inhibitor, single point]",–

Compound,Potency,"activity change, negative = inhibition"
c1ccc(CCNc2nc(-c3ccccn3)cs2)cc1,–,inactive: 33.7% [at 9.22 µM]
Cc1ccc(CNC(=O)c2cc3c(-c4ccc(Cl)cc4)nn(C)c3s2)o1,active: 8.91 µM,–
COc1cccc(NC(=O)COc2ccc(N3CC(C(=O)NCC(C)C)CC3=O)cc2)c1 (stereo unspecified),"inconclusive: 1.26 µM [inhibitor, single point]",–
CCOc1cc(S(=O)(=O)N2CCN(Cc3ccccc3)CC2)ccc1Br,active: 11.2 µM,–
CCOc1ccccc1NC(=O)CN(Cc1ccccc1)S(C)(=O)=O,inactive,–
C=CCN(CC=C)S(=O)(=O)c1ccc(C(=O)Nc2nnc(CSC)o2)cc1,"inconclusive: 25.1 µM [inhibitor, single point]",–
CCn1c(NCc2cc(Br)ccc2NS(=O)(=O)c2ccc(C)cc2)nc2ccccc21,"inconclusive: 35.5 µM [inhibitor, single point]",–
COc1ccc(-n2nnnc2SCC(=O)Nc2nc3c(s2)CCCC3)cc1,"inconclusive: 35.5 µM [inhibitor, single point]",–
Oc1ccc(/C=N/NC(=S)Nc2cccnc2)c(O)c1O,"inconclusive: 3.55 µM [inhibitor, partial curve]",–
COc1ccc(NC(=O)CSc2nc3[nH]ncc3c(=O)n2-c2ccccc2OC)cc1OC,"inconclusive: 35.5 µM [activator, single point]",–
Cc1cc(C)c2[nH]c(=O)c(CN(CC3CCCO3)S(=O)(=O)c3ccc4c(c3)OCCO4)cc2c1 (stereo unspecified),"inconclusive: 5.62 µM [activator, single point]",–
COc1ccc(-c2nn(-c3ccccc3)cc2/C=N/NC(=O)c2ccc3c(c2)OCO3)cc1,"inconclusive: 10 µM [inhibitor, single point]",–
CC(C)c1cc(N=NC(N)=O)cc(C(C)C)c1O,–,inactive: 31% [at 9.22 µM]
C=CCn1c(Br)nc2c1c(=O)[nH]c(=O)n2C,inactive,–
CCCCc1ccc(C2C(C#N)=C(N)SC(N)=C2C#N)s1,"inconclusive: 11.2 µM [inhibitor, single point]",–
COc1ccccc1N1CCN(Cc2cc(Br)c(O)c3ncccc23)CC1,active: 10 µM,–
CCCc1nc2ccccc2c2nc(N)nn12,inactive,–
O=C(Nc1cccc(C(F)(F)F)c1)c1cccnc1NCCc1ccccc1,"inconclusive: 35.5 µM [inhibitor, single point]",–
O=C(N/C=N/OCc1ccc(Cl)cc1Cl)NOCc1c(Cl)cccc1Cl,"inconclusive: 2.82 µM [inhibitor, partial curve]",–
Cc1nn(CC(O)COc2ccc3c(c2)CCC3)c(C)c1Br (stereo unspecified),"inconclusive: 5.62 µM [inhibitor, single point]",–
CCc1nnc(NC(=O)C2Cc3ccccc3CN2S(=O)(=O)c2c(C)c(C)cc(C)c2C)s1 (stereo unspecified),"inconclusive: 14.1 µM [inhibitor, single point]",–
CN(C(=O)CSc1cc(C(=O)c2nccn2C)c2ccccc2n1)c1ccccc1,"inconclusive: 3.55 µM [inhibitor, single point]",–
O=C(N/C=C\n1cnc2cc(C(F)(F)F)ccc21)c1ccc([N+](=O)[O-])cc1,–,inactive: 11.9% [at 9.22 µM]
O=C(Nc1cccc(Cl)c1Cl)c1ccc(-c2ccccc2)cc1,inactive,–

# Look-ups from the results shown:
# Value for O=C(Nc1cccc(C(F)(F)F)c1)c1cccnc1NCCc1ccccc1 under Potency: inconclusive: 35.5 µM [inhibitor, single point]
# Value for COc1cccc(NC(=O)COc2ccc(N3CC(C(=O)NCC(C)C)CC3=O)cc2)c1 (stereo unspecified) under Potency: inconclusive: 1.26 µM [inhibitor, single point]
# Value for CN(C(=O)CSc1cc(C(=O)c2nccn2C)c2ccccc2n1)c1ccccc1 under Potency: inconclusive: 3.55 µM [inhibitor, single point]
# Value for CCOc1cc(S(=O)(=O)N2CCN(Cc3ccccc3)CC2)ccc1Br under Potency: active: 11.2 µM
# Value for CCC(c1nnnn1C1CCCC1)N(Cc1cccs1)Cc1cc2cc(C)ccc2[nH]c1=O (stereo unspecified) under Potency: inactive

# (next part)

Compound,Potency,"activity change, negative = inhibition"
Cc1ccc(O)c(/C=N/NC(=O)c2[nH]ncc2Br)c1,"inconclusive: 0.562 µM [inhibitor, full curve, poor fit]",–
O=Cc1c(Sc2ccccc2)nc2ccccn2c1=O,"inconclusive: 31.6 µM [inhibitor, single point]",–
CCOC(=O)c1c(NC(=O)c2nn(CC)cc2Br)sc(C)c1C,"inconclusive: 1.12 µM [activator, full curve]",–
CCOC(=O)c1ccc(CNC(=O)CSc2nnc(-c3ccncc3)o2)cc1,"inconclusive: 14.1 µM [inhibitor, single point]",–
Cc1ccccc1OCCN1C(=O)NC2(CCCc3ccccc32)C1=O (stereo unspecified),"inconclusive: 3.98 µM [inhibitor, single point]",–
O=C(NCC1CCN(c2ccc(S(=O)(=O)N3CCOCC3)cc2)CC1)c1ccc(Cl)cc1,"inconclusive: 12.6 µM [inhibitor, partial curve]",–
O=C(OC1CCOC1=O)c1cc(-c2cccc(Br)c2)nc2ccccc12 (stereo unspecified),inactive,–
O=C(Nc1cccc(C(F)(F)F)c1)N1CCC(c2nc(-c3ccc(F)cc3)no2)CC1,active: 22.4 µM,–
CCOc1ccccc1C(=O)Nc1nncs1,inactive,–
CCS(=O)(=O)c1c([N+](=O)[O-])ncn1C,active: 3.55 µM,–
CN1c2cccc3cccc(c23)N(C)C1(C)C,inactive,–
N#CC1=C(N)N2C(=C(C#N)C1c1cccc(Br)c1)Nc1ccccc12 (stereo unspecified),"inconclusive: 3.98 µM [inhibitor, full curve, poor fit]",–
CC(C)(C)C(=O)NC(=S)NNC(=O)c1ccc(-c2ccccc2)cc1,active: 8.91 µM,–
CC1CCCC(C)N1C(=O)c1cccc2c1-c1ccccc1/C2=N/O (stereo unspecified),active: 7.94 µM,–
CC(C)CC[n+]1ccn(-c2nc3ccccc3nc2[N-]S(=O)(=O)c2ccc(Cl)cc2)c1,–,inactive: 3.94% [at 9.22 µM]
Cc1ccc(C2c3c(oc4ccccc4c3=O)C(=O)N2CCCN2CCOCC2)o1 (stereo unspecified),"inconclusive: 35.5 µM [activator, single point]",–
O=[N+]([O-])c1cccc(-c2n[nH]c(=S)n2-c2ccccc2)c1,–,inactive: -11.8% [at 9.22 µM]
COc1cc(/C=N/NC(=O)c2cc3ccccc3cc2O)ccc1OCCN1CCCCC1,active: 20 µM,–
COc1cc2c(cc1NC(=O)CSc1nnc(Cc3cccs3)n1C)oc1ccccc12,inactive,–
O=C(Cn1cnc2c(oc3ccccc32)c1=O)c1ccccc1,"inconclusive: 1.12 µM [inhibitor, single point]",–
O=C(N1CCN(c2ccccn2)CC1)C(Cl)(Cl)Cl,inactive,–
NNC(=O)c1cc2sccc2s1,–,inactive: 8.66% [at 9.22 µM]
COC(C[C@@H]1O[C@H]1[C@@H](O)COCc1ccccc1)OC,"inconclusive: 6.31 µM [activator, partial curve, poor fit]",–
